The values that follow come from patent US20110130386A1, “DNA-PK INHIBITORS” (priority 2008, published 2011).

Amino acid sequences for entries named in this document (tags omitted).
UniProt P78527, whole entry: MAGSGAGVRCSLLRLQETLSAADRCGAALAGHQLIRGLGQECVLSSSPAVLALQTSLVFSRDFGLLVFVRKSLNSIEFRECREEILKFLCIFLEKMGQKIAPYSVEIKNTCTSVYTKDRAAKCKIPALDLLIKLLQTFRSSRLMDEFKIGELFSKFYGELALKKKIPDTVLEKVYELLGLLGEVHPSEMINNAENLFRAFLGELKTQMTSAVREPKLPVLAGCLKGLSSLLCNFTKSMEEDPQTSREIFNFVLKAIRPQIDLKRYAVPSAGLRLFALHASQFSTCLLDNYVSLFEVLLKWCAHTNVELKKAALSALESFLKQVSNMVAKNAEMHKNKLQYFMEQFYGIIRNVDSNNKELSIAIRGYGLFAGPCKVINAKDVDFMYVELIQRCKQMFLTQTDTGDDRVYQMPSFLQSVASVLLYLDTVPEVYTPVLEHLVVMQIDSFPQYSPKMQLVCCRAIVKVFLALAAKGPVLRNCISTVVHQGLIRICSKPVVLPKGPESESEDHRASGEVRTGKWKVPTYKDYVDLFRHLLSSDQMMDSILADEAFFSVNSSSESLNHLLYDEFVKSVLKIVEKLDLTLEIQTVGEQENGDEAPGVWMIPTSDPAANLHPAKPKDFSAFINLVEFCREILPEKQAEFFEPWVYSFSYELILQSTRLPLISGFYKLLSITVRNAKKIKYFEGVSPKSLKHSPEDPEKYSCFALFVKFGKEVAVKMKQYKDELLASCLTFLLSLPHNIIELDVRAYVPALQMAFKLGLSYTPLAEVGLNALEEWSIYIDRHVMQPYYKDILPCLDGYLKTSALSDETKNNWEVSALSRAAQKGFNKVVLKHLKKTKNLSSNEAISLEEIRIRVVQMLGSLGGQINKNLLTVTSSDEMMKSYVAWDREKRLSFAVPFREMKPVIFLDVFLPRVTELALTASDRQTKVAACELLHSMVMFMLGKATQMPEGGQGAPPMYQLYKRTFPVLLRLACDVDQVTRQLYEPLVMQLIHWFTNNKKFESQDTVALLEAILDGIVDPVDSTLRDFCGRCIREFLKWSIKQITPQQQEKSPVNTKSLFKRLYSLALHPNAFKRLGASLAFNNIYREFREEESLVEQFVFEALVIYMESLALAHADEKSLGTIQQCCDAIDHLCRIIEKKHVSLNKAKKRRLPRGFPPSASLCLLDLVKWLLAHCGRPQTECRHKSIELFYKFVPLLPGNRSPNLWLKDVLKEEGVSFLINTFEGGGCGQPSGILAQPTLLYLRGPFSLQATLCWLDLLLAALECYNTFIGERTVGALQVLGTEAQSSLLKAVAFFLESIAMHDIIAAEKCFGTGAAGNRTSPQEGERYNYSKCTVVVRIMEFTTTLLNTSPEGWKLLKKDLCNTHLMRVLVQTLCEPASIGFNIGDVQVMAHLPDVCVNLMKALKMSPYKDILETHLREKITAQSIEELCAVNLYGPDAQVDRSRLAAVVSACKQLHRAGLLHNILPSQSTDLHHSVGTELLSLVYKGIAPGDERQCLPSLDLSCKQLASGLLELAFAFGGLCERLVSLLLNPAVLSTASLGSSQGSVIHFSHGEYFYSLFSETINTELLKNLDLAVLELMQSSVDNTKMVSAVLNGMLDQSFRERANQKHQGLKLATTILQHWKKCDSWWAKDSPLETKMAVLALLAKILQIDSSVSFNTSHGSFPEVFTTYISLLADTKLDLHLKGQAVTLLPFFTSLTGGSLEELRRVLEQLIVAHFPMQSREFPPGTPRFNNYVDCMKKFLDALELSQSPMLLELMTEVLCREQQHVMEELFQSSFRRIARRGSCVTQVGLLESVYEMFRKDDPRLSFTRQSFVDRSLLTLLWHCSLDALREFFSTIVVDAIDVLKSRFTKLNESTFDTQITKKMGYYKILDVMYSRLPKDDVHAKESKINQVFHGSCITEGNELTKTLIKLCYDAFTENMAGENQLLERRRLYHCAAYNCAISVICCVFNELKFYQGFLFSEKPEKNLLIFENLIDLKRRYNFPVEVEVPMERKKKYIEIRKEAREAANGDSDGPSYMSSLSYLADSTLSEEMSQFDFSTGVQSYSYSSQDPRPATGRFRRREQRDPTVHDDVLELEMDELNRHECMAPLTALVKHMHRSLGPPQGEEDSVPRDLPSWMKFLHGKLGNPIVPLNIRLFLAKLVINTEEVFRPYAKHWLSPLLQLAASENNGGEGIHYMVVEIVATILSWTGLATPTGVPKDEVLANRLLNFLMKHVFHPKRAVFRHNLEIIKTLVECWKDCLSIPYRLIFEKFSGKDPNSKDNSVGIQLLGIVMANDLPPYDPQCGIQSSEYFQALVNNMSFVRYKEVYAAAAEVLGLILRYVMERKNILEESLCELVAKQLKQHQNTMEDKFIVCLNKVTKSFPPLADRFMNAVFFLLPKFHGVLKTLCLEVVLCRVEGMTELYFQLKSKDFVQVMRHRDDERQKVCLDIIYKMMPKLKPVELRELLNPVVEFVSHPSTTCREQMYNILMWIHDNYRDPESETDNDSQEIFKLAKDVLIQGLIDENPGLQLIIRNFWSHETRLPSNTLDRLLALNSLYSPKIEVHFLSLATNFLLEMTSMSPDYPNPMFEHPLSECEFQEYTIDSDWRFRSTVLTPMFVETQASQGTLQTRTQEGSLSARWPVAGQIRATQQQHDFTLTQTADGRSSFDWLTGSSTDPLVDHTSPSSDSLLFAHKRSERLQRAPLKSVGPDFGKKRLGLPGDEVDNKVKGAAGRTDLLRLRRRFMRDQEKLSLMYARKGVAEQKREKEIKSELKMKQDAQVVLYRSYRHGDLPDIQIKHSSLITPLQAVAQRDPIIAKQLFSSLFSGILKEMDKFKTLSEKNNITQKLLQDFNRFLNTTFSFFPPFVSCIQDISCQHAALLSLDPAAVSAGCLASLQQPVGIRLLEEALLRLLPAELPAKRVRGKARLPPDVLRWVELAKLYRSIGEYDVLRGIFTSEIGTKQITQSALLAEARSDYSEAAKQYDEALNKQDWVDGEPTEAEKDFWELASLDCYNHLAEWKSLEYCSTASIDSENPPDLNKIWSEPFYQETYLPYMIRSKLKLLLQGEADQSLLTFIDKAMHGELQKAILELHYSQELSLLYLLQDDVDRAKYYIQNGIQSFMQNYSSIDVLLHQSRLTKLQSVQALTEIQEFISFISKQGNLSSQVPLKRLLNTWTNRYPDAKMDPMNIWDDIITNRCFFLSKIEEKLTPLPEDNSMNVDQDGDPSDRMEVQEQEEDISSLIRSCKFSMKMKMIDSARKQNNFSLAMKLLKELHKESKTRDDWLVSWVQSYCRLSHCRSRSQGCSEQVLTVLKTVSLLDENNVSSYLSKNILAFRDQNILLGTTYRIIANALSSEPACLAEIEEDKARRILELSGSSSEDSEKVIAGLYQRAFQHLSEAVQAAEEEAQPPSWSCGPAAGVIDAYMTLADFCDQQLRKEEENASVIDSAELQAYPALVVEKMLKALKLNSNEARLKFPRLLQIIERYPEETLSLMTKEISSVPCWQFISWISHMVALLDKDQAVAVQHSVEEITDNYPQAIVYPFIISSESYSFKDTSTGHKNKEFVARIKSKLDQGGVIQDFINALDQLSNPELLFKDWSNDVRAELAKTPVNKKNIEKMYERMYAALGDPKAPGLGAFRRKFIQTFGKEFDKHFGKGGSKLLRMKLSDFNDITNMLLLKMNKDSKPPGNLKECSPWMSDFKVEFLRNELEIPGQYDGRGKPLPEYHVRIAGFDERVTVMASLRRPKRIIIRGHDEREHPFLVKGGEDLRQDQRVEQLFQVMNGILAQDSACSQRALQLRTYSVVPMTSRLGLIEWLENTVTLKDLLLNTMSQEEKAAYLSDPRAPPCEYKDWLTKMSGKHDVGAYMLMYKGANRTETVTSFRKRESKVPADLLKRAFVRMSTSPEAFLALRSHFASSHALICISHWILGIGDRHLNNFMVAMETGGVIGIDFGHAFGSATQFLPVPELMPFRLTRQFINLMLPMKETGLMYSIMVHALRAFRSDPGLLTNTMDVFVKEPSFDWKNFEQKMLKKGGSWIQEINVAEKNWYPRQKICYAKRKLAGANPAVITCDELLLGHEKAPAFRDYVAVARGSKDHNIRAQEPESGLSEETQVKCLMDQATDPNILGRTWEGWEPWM
UniProt P13010, whole entry partner: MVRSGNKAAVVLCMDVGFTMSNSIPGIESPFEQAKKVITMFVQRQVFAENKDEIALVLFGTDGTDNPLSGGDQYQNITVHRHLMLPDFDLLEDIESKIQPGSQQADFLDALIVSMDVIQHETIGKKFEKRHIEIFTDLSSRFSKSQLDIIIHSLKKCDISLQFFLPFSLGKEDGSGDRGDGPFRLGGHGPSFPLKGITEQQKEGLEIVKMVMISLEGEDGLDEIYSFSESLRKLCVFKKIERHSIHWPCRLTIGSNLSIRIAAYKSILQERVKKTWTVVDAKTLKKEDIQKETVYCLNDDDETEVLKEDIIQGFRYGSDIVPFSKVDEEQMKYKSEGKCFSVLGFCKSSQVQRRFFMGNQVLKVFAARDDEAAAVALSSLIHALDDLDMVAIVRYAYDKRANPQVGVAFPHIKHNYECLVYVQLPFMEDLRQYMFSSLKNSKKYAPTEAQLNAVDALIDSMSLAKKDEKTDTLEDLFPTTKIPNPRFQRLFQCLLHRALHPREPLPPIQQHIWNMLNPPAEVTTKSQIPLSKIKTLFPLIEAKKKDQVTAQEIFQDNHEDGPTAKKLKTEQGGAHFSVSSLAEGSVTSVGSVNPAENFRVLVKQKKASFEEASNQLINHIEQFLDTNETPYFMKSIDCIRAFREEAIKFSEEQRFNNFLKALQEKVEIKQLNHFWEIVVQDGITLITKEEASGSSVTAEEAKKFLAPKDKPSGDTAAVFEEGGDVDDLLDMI
UniProt P12956, whole entry partner: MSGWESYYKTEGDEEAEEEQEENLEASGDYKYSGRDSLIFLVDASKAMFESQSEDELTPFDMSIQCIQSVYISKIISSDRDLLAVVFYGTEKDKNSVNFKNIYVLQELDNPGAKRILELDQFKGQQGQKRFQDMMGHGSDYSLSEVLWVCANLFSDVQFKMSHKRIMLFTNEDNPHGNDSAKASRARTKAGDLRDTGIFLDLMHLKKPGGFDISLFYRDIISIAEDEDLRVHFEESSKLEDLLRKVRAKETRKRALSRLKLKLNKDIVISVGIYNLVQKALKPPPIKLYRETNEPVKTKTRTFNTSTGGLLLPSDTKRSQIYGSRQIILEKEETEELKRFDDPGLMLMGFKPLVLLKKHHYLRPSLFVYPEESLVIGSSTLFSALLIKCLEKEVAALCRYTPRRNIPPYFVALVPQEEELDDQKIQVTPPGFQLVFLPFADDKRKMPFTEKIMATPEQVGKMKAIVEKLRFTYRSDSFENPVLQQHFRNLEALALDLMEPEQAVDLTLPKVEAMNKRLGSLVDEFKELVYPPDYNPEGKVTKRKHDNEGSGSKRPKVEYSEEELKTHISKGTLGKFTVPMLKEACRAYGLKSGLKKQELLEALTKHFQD

Structures were worked out from names or drawings and are uncertain.

The assay deals with Mammalian DNA-PK (Homo sapiens, UniProt P78527). The assay is described as follows: DNA-PK inhibition assay (ELISA of p53 Ser15 phosphorylation of GST-p53N66). In kind it is biochemical, Mammalian (isolated from HeLa cell nuclear extract). The following applies: read-out: mean IC50; DNA-PK from HeLa nuclear extract; mean value.
By IC50 is commonly meant the concentration that inhibits the measured activity by half. In the case of `CNCc1ccc(-c2cccc3c(=O)cc(N4CCOCC4)oc23)c2sc3ccccc3c12`, the half-maximal inhibitory concentration (IC50) was determined as 42.2 nM. In the case of `O=c1cc(N2CCOCC2)oc2c(-c3ccc(CNCCOCCO)c4c3sc3ccccc34)cccc12` it was 58.9 nM; in that of `O=c1cc(N2CCOCC2)oc2c(-c3ccc(CNc4ccccc4)c4c3sc3ccccc34)cccc12`, 24.8 nM.
